Literature values in patent publication US20060258599A1, “Methods and composition for the treatment of cystic fibrosis and related illnesses” (priority 2005, published 2006).

Tested on: Hepa 1c1c7 murine hepatoma cells
Settings: cited from earlier work

Compound | conjugation to reduced glutathione (GSH) within cells
S=C=NCc1ccccc1 [BITC, benzyl isothiocyanate] | conjugated to reduced glutathione (GSH)
C[S+]([O-])CCCCN=C=S (centres unmarked) [sulforaphane] | conjugated to reduced glutathione (GSH)
